Reference: patent publication US20180086804A1 (COMMISSARIAT A L ENERGIE ATOMIQUE ET AUX ENERGIES …, published 2018)
No constants are given. Whether binding was seen depends on the method and setting.

B1: CCNB1 25-39 (peptide)
peptide: KRVPTAPAATSKPGL
modifications: C-terminal amide
B2: CCNB1 43-57 (peptide)
peptide: TALGDIGNKVSEQLQ
modifications: C-terminal amide
B3: CCNB1 58-72 (peptide)
peptide: AKMPMKKEAKPSATG
modifications: C-terminal amide
B4: CCNB1 71-85 (peptide)
peptide: TGKVIDKKLPKPLEK
modifications: C-terminal amide
B5: CCNB1 77-91 (peptide)
peptide: KKLPKPLEKVPMLVP
modifications: C-terminal amide
B6: CCNB1 96-110 (peptide)
peptide: EPVPEPEPEPEPEPV
modifications: C-terminal amide
B7: CCNB1 140-154 (peptide)
peptide: EDLCQAFSDVILAVN
modifications: C-terminal amide
B8: CCNB1 147-161 (peptide)
peptide: SDVILAVNDVDAEDG
modifications: C-terminal amide
B9: CCNB1 151-165 (peptide)
peptide: LAVNDVDAEDGADPN
modifications: C-terminal amide
B10: CCNB1 37-51 (peptide)
peptide: PGLRPRTALGDIGNK
modifications: C-terminal amide

These binders were tested against T1, HLA-DRB3 (HLA-DRB3*01:01) (human) (assay: competition ELISA).
T1 construct: mature; purified from homozygous EBV-transformed lymphoblastoid cells with antibody L243
B1 was tested, and the binding was “no binding (tested: rel. affinity >362)”.
B2 was tested, and the binding was “no binding (tested: rel. affinity >362)”.
With B3 the binding was “no binding (tested: rel. affinity >362)”.
In the case of B4, the binding is reported as “no binding (tested: rel. affinity >362)”.
B5 was tested, and the binding was “no binding (tested: rel. affinity >362)”.
For B6, the binding was “no binding (tested: rel. affinity >362)”.
In the case of B7, the binding is reported as “no binding (tested: rel. affinity >362)”.
With B8 the binding was “no binding (tested: rel. affinity >362)”.
B9 was tested, and the binding was “no binding (tested: rel. affinity >362)”.
In the case of B10, the binding is reported as “no binding (tested: rel. affinity >362)”.

The binders below were run against T2, HLA-DRB4 (HLA-DRB4*01:01) (human) (assay: competition ELISA).
T2 construct: mature; purified from homozygous EBV-transformed lymphoblastoid cells with antibody L243
For B1, the binding was “no binding (tested: rel. affinity >961)”.
B2 was tested, and the binding was “no binding (tested: rel. affinity >961)”.
With B3 the binding was “no binding (tested: rel. affinity >961)”.
In the case of B4, the binding is reported as “no binding (tested: rel. affinity >961)”.
B6 was tested, and the binding was “no binding (tested: rel. affinity >961)”.
With B7 the binding was “no binding (tested: rel. affinity >961)”.
With B8 the binding was “no binding (tested: rel. affinity >961)”.
B9 was tested, and the binding was “no binding (tested: rel. affinity >961)”.
With B10 the binding was “no binding (tested: rel. affinity >961)”.

Each binder was assayed against T3, HLA-DR1 (HLA-DRB1*01:01) (human) (assay: competition ELISA).
T3 construct: mature; class II HLA molecule purified from homozygous EBV-transformed lymphoblastoid cells with antibody L243
For B1, the binding was “no binding (tested: rel. affinity >11262)”.
In the case of B2, the binding is reported as “no binding (tested: rel. affinity >11262)”.
With B3 the binding was “no binding (tested: rel. affinity >11262)”.
For B4, the binding was “no binding (tested: rel. affinity >11262)”.
With B5 the binding was “no binding (tested: rel. affinity >11262)”.
B6 was tested, and the binding was “no binding (tested: rel. affinity >11262)”.
For B7, the binding was “no binding (tested: rel. affinity >11262)”.
With B8 the binding was “no binding (tested: rel. affinity >11262)”.
For B9, the binding was “no binding (tested: rel. affinity >11262)”.
B10 was tested, and the binding was “no binding (tested: rel. affinity >11262)”.

Each binder was assayed against T4, HLA-DR7 (HLA-DRB1*07:01) (human) (assay: competition ELISA).
T4 construct: mature; purified from homozygous EBV-transformed lymphoblastoid cells with antibody L243
B1 was tested, and the binding was “no binding (tested: rel. affinity >1036)”.
With B2 the binding was “no binding (tested: rel. affinity >1036)”.
For B3, the binding was “no binding (tested: rel. affinity >1036)”.
With B4 the binding was “no binding (tested: rel. affinity >1036)”.
For B5, the binding was “no binding (tested: rel. affinity >1036)”.
B6 was tested, and the binding was “no binding (tested: rel. affinity >1036)”.
With B7 the binding was “no binding (tested: rel. affinity >1036)”.
For B8, the binding was “no binding (tested: rel. affinity >1036)”.
For B9, the binding was “no binding (tested: rel. affinity >1036)”.
In the case of B10, the binding is reported as “no binding (tested: rel. affinity >1036)”.

These binders were tested against T5, HLA-DR3 (HLA-DRB1*03:01) (human) (assay: competition ELISA).
T5 construct: mature; purified from homozygous EBV-transformed lymphoblastoid cells with antibody L243
B1 was tested, and the binding was “no binding (tested: rel. affinity >825)”.
In the case of B2, the binding is reported as “no binding (tested: rel. affinity >825)”.
In the case of B3, the binding is reported as “no binding (tested: rel. affinity >825)”.
In the case of B5, the binding is reported as “no binding (tested: rel. affinity >825)”.
In the case of B6, the binding is reported as “no binding (tested: rel. affinity >825)”.
B8 was tested, and the binding was “no binding (tested: rel. affinity >825)”.
B9 was tested, and the binding was “no binding (tested: rel. affinity >825)”.
B10 was tested, and the binding was “no binding (tested: rel. affinity >825)”.

These binders were tested against T6, HLA-DR11 (HLA-DRB1*11:01) (human) (assay: competition ELISA).
T6 construct: mature; purified from homozygous EBV-transformed lymphoblastoid cells with antibody L243
B1 was tested, and the binding was “no binding (tested: rel. affinity >1949)”.
In the case of B2, the binding is reported as “no binding (tested: rel. affinity >1949)”.
In the case of B4, the binding is reported as “no binding (tested: rel. affinity >1949)”.
B6 was tested, and the binding was “no binding (tested: rel. affinity >1949)”.
B7 was tested, and the binding was “no binding (tested: rel. affinity >1949)”.
For B8, the binding was “no binding (tested: rel. affinity >1949)”.
For B9, the binding was “no binding (tested: rel. affinity >1949)”.
For B10, the binding was “no binding (tested: rel. affinity >1949)”.

Each binder was assayed against T7, HLA-DRB5 (HLA-DRB5*01:01) (human) (assay: competition ELISA).
T7 construct: mature; purified from homozygous EBV-transformed lymphoblastoid cells with antibody L243
In the case of B1, the binding is reported as “no binding (tested: rel. affinity >3467)”.
In the case of B2, the binding is reported as “no binding (tested: rel. affinity >3467)”.
B3 was tested, and the binding was “no binding (tested: rel. affinity >3467)”.
In the case of B5, the binding is reported as “no binding (tested: rel. affinity >3467)”.
B6 was tested, and the binding was “no binding (tested: rel. affinity >3467)”.
With B7 the binding was “no binding (tested: rel. affinity >3467)”.
In the case of B8, the binding is reported as “no binding (tested: rel. affinity >3467)”.
In the case of B9, the binding is reported as “no binding (tested: rel. affinity >3467)”.
With B10 the binding was “no binding (tested: rel. affinity >3467)”.

Each binder was assayed against T8, HLA-DR13 (HLA-DRB1*13:01) (human) (assay: competition ELISA).
T8 construct: mature; purified from homozygous EBV-transformed lymphoblastoid cells with antibody L243
B1 was tested, and the binding was “no binding (tested: rel. affinity >1949)”.
B4 was tested, and the binding was “no binding (tested: rel. affinity >1949)”.
With B5 the binding was “no binding (tested: rel. affinity >1949)”.
In the case of B6, the binding is reported as “no binding (tested: rel. affinity >1949)”.
In the case of B7, the binding is reported as “no binding (tested: rel. affinity >1949)”.
B8 was tested, and the binding was “no binding (tested: rel. affinity >1949)”.
In the case of B9, the binding is reported as “no binding (tested: rel. affinity >1949)”.

What follows are binders tested against T9, HLA-DR15 (HLA-DRB1*15:01) (human) (assay: competition ELISA).
T9 construct: mature; purified from homozygous EBV-transformed lymphoblastoid cells with antibody L243
For B1, the binding was “no binding (tested: rel. affinity >329)”.
For B3, the binding was “no binding (tested: rel. affinity >329)”.
With B4 the binding was “no binding (tested: rel. affinity >329)”.
B5 was tested, and the binding was “no binding (tested: rel. affinity >329)”.
In the case of B6, the binding is reported as “no binding (tested: rel. affinity >329)”.
For B9, the binding was “no binding (tested: rel. affinity >329)”.
With B10 the binding was “no binding (tested: rel. affinity >329)”.

Each binder was assayed against T10, HLA-DR4 (HLA-DRB1*04:01) (human) (assay: competition ELISA).
T10 construct: mature; purified from homozygous EBV-transformed lymphoblastoid cells with antibody L243
With B1 the binding was “no binding (tested: rel. affinity >1771)”.
In the case of B2, the binding is reported as “no binding (tested: rel. affinity >1771)”.
For B3, the binding was “no binding (tested: rel. affinity >1771)”.
In the case of B4, the binding is reported as “no binding (tested: rel. affinity >1771)”.
For B5, the binding was “no binding (tested: rel. affinity >1771)”.
B6 was tested, and the binding was “no binding (tested: rel. affinity >1771)”.
B10 was tested, and the binding was “no binding (tested: rel. affinity >1771)”.
